{"sequences": {"note": "Protein sequences, listed by entry. Tags and fused reporters are not part of them.", "UniProt P61169, whole entry": "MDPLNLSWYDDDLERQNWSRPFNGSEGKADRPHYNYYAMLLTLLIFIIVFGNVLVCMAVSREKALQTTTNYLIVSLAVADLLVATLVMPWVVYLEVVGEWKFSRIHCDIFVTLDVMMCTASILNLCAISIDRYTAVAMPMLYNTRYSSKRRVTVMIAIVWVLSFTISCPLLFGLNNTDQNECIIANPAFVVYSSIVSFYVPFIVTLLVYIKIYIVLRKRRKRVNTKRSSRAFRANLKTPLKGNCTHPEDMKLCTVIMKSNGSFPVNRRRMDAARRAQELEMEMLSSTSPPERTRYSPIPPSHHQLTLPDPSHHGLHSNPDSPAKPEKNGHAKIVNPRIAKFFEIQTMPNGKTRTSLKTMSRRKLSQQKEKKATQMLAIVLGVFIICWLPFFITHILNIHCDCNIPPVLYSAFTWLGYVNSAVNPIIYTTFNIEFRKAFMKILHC"}, "source": "patent US5446147A", "about": "(Trustees of the University of Pennsylvania, priority 1992, dated 1995)", "biological_target": "T1, dopamine D2 receptor (Rat Striatal Membranes) (Rattus norvegicus, UniProt P61169)", "T1 construct": "Rat tissue homogenates were prepared as described previously; from tissue; host or cells: rat striatal membranes (tissue homogenate)", "experiment": "Competition for ^125 I-FIDA-1 binding to rat striatal membranes", "conditions": "competition study with various types of receptor ligands", "method": "Rat tissue homogenates were prepared as described previously. Murphy, R. A., et al., J. Med. Chem. 33, 171-178 (1990). The binding assays were performed by incubating 50 μL of tissue preparations containing 40-60 μg of protein with appropriate amounts of ^125 I-labeled ligand and competitors in a total volume of 0.2 mL of the assay buffer. After an incubation period of 15 min at 37° C. (with stirring), the samples were rapidly filtered in a cell harvester (Brandel M-24R) under vacuum through Whatman GF/B glass-fiber filters pretreated with […] protamine base and washed with 3×5 mL of cold (4° C.) 50 mM Tris-HCI buffer, pH 7.4. The nonspecific binding was obtained in the presence of 10 μM (+)butaclamol. The filters were counted in a γ counter (Beckman 5500) at an efficiency of 70%. Both Scatchard and competition experiments were analyzed with the iterative nonlinear least squares curve-fitting program LIGAND.", "note": "At least one compound was matched to its structure with a doubt left.", "data": [{"smiles": "CCN1CCC[C@H]1CNC(=O)c1cc(I)cc(OC)c1OCCF", "note": "[FIDA1, (S)-(-)-2-fluoroethoxy-3-methyl-N-[(1-ethyl-2-pyrrolidinyl)methyl]-5-iodobenzamide]", "values": [{"measurement": "binding specificity and selectivity (FIDA1 radioligand)", "value": "specifically binds to the dopamine D2 receptor with great selectivity"}]}]}
